Measured values from patent US9447103B2, “Inauhzin analogues that induce P53, inhibit cell growth, and have antitumor activity” (Indiana University Research and Technology Corp., priority 2012, dated 2016).
Some of these results come from one statement about several compounds together. Some ranges recur; such a range may be that of the whole group of compounds.

System: H1299
Assay: Cell viability assay (3-day WST-8), H1299 (p53 null)
Conditions: H1299 versus H460

`CCC(Sc1nnc2c3ccccc3n(CCO)c2n1)C(=O)N1c2ccccc2Cc2ccccc21` (stereo not shown) [Compound 37, 1-(acridin-10(9H)-yl)-2-((5-(2-hydroxyethyl)-5H-[1,2,4]triazino[5,6-b]indol-3-yl)thio)butan-1-one] was tested, and the “EC50 on H1299 fold higher than on H460” value was 3-15 fold.
